Measured values taken from PubChem BioAssay AID540256 (National Center for Advancing Translational Sciences (NCATS), 2011).
Where “and” joins values, the source holds several entries; their conditions need not be identical. Equal entries are not always repeated. Out of some 300,000 compounds screened, about 3,700 (1.2%) were called active. The shares of active, inactive and inconclusive entries below differ from those in the screen. Calls come from the whole dose curve; tested in HEK293 cells. Potencies beside an inconclusive call are fits to weak or partial responses and may not hold up.

Assay: qHTS for Inhibitors of binding or entry into cells for Lassa Virus; note: nearly all actives have a fitted effect of over 50% in size
Settings: Lassa virus pseudotype entry inhibition, cell reporter; activity change, negative = inhibition: at 37.9 µM (top of the series) unless noted
% is set by controls: 0 for no effect and ±100 for the full control effect; potency is the fitted concentration of half-maximal effect.

SMILES	Potency	activity change, negative = inhibition
Cc1ccc(N=C2NC(=O)/C(=C/c3cccn3C)S2)cc1C	inconclusive: 10 µM [inhibitor, partial curve, poor fit]	
CSc1ccc(/C=C(/Sc2nnc(-c3ccccc3)o2)C(=O)O)cc1		inactive: -27.1%
Cc1ccccc1NC(=O)c1ccc(Cl)c(S(=O)(=O)N2CCCCCC2)c1	inconclusive: 7.94 µM [inhibitor, partial curve, poor fit]	
Cc1ccc(S(=O)(=O)N2CCOCC2)cc1NC(=O)COC(=O)CCc1c[nH]c2ccccc12		inactive: 4.79%
O=C(CCc1nc2ccccc2[nH]1)N1CCN(C(=O)c2ccco2)CC1	inconclusive: 18.4 µM [inhibitor, partial curve, poor fit]	
O=C(NN1C(=O)C2C(C1=O)C1C=CC2C12CC2)c1ccncc1 (stereo not drawn)		inactive: -5.83%
COc1ccccc1CN1CCC(CNC(=O)c2cnn(-c3ccc(Cl)cc3)c2C2CCN(C(=O)OC(C)(C)C)CC2)CC1	inconclusive: 28.2 µM [inhibitor, single point]	
Cc1ccc(S(=O)(=O)Nc2ccc(Cl)cc2)cc1NC(=O)Cn1cnc2c1c(=O)n(C)c(=O)n2C	inconclusive: 0.501 µM [activator, full curve, poor fit]	
COc1ccccc1NC(=O)C(=O)NCCC1CCCCN1S(=O)(=O)c1cccs1 (stereo not drawn)		inactive: -13.2%
CCc1ccccc1Nc1ccc(C(=O)O)cc1N		inactive: 9.11%
Cc1ccccc1OCC(=O)NCC(=O)OCc1ccc(Br)cc1	inconclusive: 1 µM [inhibitor, partial curve, poor fit]	
CCN(CC)CCCNC(=O)CN1N=C(c2ccc(OC)cc2)CCC1=O	inconclusive: 2.24 µM [activator, full curve, poor fit] and inconclusive: 7.94 µM [activator, partial curve, poor fit]	
CCCC(=O)Nc1nnc(SCC(=O)NCc2ccc3c(c2)OCO3)s1	inconclusive: 1.26 µM [inhibitor, single point]	
O=C(CCl)N(c1ccccc1)C1CCCCC1	inconclusive: 7.08 µM [inhibitor, full curve, poor fit]	
C=CCn1c(SCC(=O)Nc2nc3ccccc3s2)nc(O)c(CC)c1=O	inconclusive: 7.08 µM [inhibitor, full curve, poor fit]	
Cc1cc(N/N=C/c2ccc(O)c(C)c2O)nc(-c2ccccc2O)n1	inconclusive: 14.1 µM [inhibitor, single point]	
CCOC(=O)c1c(-c2ccc(OC)cc2)oc2ccc(OCC(N)=O)cc12		inactive: -22.1% [at 46.1 µM]
O=c1[nH]c(=S)[nH]c(O)c1N=Nc1ccc2c(c1)OCO2	inconclusive: 25.1 µM [inhibitor, single point]	

Another view of two compounds above:
SMILES,Potency,"activity change, negative = inhibition"
Cc1ccccc1OCC(=O)NCC(=O)OCc1ccc(Br)cc1,"inconclusive: 1 µM [inhibitor, partial curve, poor fit]",
CCN(CC)CCCNC(=O)CN1N=C(c2ccc(OC)cc2)CCC1=O,"inconclusive: 2.24 µM [activator, full curve, poor fit] and inconclusive: 7.94 µM [activator, partial curve, poor fit]",
